Laboratory results from ChEMBL document CHEMBL1152373, “Synthesis and antimultidrug resistance evaluation of icariin and its derivatives” (Bioorg Med Chem Lett, 2009).
pIC50: −log10 of the molar value.

Test system: MCF7
Experiment: Cytotoxicity against human MCF7 cells after 72 hrs […]
Type: functional, cell-based
Conditions: MCF7, 72 h

## COc1cccc2c1C(=O)c1c(O)c3c(c(O)c1C2=O)C[C@@](O)(C(=O)CO)C[C@@H]3O[C@H]1C[C@H](N)[C@H](O)[C@H](C)O1 [DOXORUBICIN]
  pIC50: 6.28
